# Source: article PMC3946611, “hCLE/C14orf166 Associates with DDX1-HSPC117-FAM98B in a Novel Transcription-Dependent Shuttling RNA-Transporting Complex” (PLoS ONE, 2014)
# B1: F-box-like/WD repeat-containing protein (protein, UniProt Q9BQ87 1-522)
# chain: MSITSDEVNFLVYRYLQESGFSHSAFTFGIESHISQSNINGTLVPPSALISILQKGLQYVEAEISINKDGTVFDSRPIESLSLIVAVIPDVVQMRQQAFGEKLTQQQASAAATEASAMAKAATMTPAAISQQNPPKNREATVNGEENGAHEINNHSKPMEIDGDVEIPPNKATVLRGHESEVFICAWNPVSDLLASGSGDSTARIWNLNENSNGGSTQLVLRHCIREGGHDVPSNKDVTSLDWNSDGTLLAMGSYDGFARIWTENGNLASTLGQHKGPIFALKWNKKGNYVLSAGVDKTTIIWDAHTGEAKQQFPFHSAPALDVDWQNNMTFASCSTDMCIHVCRLGCDHPVKTFQGHTNEVNAIKWDPSGMLLASCSDDMTLKIWSMKQDACVHDLQAHSKEIYTIKWSPTGPATSNPNSSIMLASASFDSTVRLWDVEQGVCTHTLMKHQEPVYSVAFSPDGKYLASGSFDKYVHIWNTQSGSLVHSYQGTGGIFEVCWNARGDKVGASASDGSVCVLDL
# B2: AT-rich interactive domain-containing protein 3A (ARI3A) (protein, UniProt Q99856 1-593)
# chain: MKLQAVMETLLQRQQRARQELEARQQLPPDPPAAPPGRARAAPDEDREPESARMQRAQMAALAAMRAAAAGLGHPASPGGSEDGPPGSEEEDAAREGTPGSPGRGREGPGEEHFEDMASDEDMKPKWEEEEMEEDLGEDEEEEEEDYEDEEEEEDEEGLGPPGPASLGTTALFPRKAQPPQAFRGDGVPRVLGGQERPGPGPAHPGGAAHVAPQLQPPDHGDWTYEEQFKQLYELDGDPKRKEFLDDLFSFMQKRGTPVNRIPIMAKQVLDLFMLYVLVTEKGGLVEVINKKLWREITKGLNLPTSITSAAFTLRTQYMKYLYPYECEKRGLSNPNELQAAIDSNRREGRRQSFGGSLFAYSPGGAHGMLSSPKLPVSSLGLAASTNGSSITPAPKIKKEEDSAIPITVPGRLPVSLAGHPVVAAQAAAVQAAAAQAAVAAQAAALEQLREKLESAEPPEKKMALVADEQQRLMQRALQQNFLAMAAQLPMSIRINSQASESRQDSAVNLTGTNGSNSISMSVEINGIMYTGVLFAQPPAPTPTSAPNKGGGGGGGSSSNAGGRGGNTGTSGGQAGPAGLSTPSTSTSNNSLP
# B3: Pre-mRNA 3∼-end-processing factor FIP1 (protein, UniProt Q6UN15 1-594)
# chain: MSAGEVERLVSELSGGTGGDEEEEWLYGGPWDVHVHSDLAKDLDENEVERPEEENASANPPSGIEDETAENGVPKPKVTETEDDSDSDSDDDEDDVHVTIGDIKTGAPQYGSYGTAPVNLNIKTGGRVYGTTGTKVKGVDLDAPGSINGVPLLEVDLDSFEDKPWRKPGADLSDYFNYGFNEDTWKAYCEKQKRIRMGLEVIPVTSTTNKITAEDCTMEVTPGAEIQDGRFNLFKVQQGRTGNSEKETALPSTKAEFTSPPSLFKTGLPPSRNSTSSQSQTSTASRKANSSVGKWQDRYGRAESPDLRRLPGAIDVIGQTITISRVEGRRRANENSNIQVLSERSATEVDNNFSKPPPFFPPGAPPTHLPPPPFLPPPPTVSTAPPLIPPPGFPPPPGAPPPSLIPTIESGHSSGYDSRSARAFPYGNVAFPHLPGSAPSWPSLVDTSKQWDYYARREKDRDRERDRDRERDRDRDRERERTRERERERDHSPTPSVFNSDEERYRYREYAERGYERHRASREKEERHRERRHREKEETRHKSSRSNSRRRHESEEGDSHRRHKHKKSKRSKEGKEAGSEPAPEQESTEATPAE
# B4: U4/U6 small nuclear ribonucleoprotein Prp4 (protein, UniProt O43172 1-522)
# chain: MASSRASSTQATKTKAPDDLVAPVVKKPHIYYGSLEEKERERLAKGESGILGKDGLKAGIEAGNINITSGEVFEIEEHISERQAEVLAEFERRKRARQINVSTDDSEVKACLRALGEPITLFGEGPAERRERLRNILSVVGTDALKKTKKDDEKSKKSKEEYQQTWYHEGPNSLKVARLWIANYSLPRAMKRLEEARLHKEIPETTRTSQMQELHKSLRSLNNFCSQIGDDRPISYCHFSPNSKMLATACWSGLCKLWSVPDCNLLHTLRGHNTNVGAIVFHPKSTVSLDPKDVNLASCAADGSVKLWSLDSDEPVADIEGHTVRVARVMWHPSGRFLGTTCYDRSWRLWDLEAQEEILHQEGHSMGVYDIAFHQDGSLAGTGGLDAFGRVWDLRTGRCIMFLEGHLKEIYGINFSPNGYHIATGSGDNTCKVWDLRQRRCVYTIPAHQNLVTGVKFEPIHGNFLLTGAYDNTAKIWTHPGWSPLKTLAGHEGKVMGLDISSDGQLIATCSYDRTFKLWMAE
# B5: Coiled-coil alpha-helical rod protein 1 (protein, UniProt Q8TD31 1-782)
# chain: MFPPSGSTGLIPPSHFQARPLSTLPRMAPTWLSDIPLVQPPGHQDVSERRLDTQRPQVTMWERDVSSDRQEPGRRGRSWGLEGSQALSQQAEVIVRQLQELRRLEEEVRLLRETSLQQKMRLEAQAMELEALARAEKAGRAEAEGLRAALAGAEVVRKNLEEGSQRELEEVQRLHQEQLSSLTQAHEEALSSLTSKAEGLEKSLSSLETRRAGEAKELAEAQREAELLRKQLSKTQEDLEAQVTLVENLRKYVGEQVPSEVHSQTWELERQKLLETMQHLQEDRDSLHATAELLQVRVQSLTHILALQEEELTRKVQPSDSLEPEFTRKCQSLLNRWREKVFALMVQLKAQELEHSDSVKQLKGQVASLQEKVTSQSQEQAILQRSLQDKAAEVEVERMGAKGLQLELSRAQEARRRWQQQTASAEEQLRLVVNAVSSSQIWLETTMAKVEGAAAQLPSLNNRLSYAVRKVHTIRGLIARKLALAQLRQESCPLPPPVTDVSLELQQLREERNRLDAELQLSARLIQQEVGRAREQGEAERQQLSKVAQQLEQELQQTQESLASLGLQLEVARQGQQESTEEAASLRQELTQQQELYGQALQEKVAEVETRLREQLSDTERRLNEARREHAKAVVSLRQIQRRAAQEKERSQELRRLQEEARKEEGQRLARRLQELERDKNLMLATLQQEGLLSRYKQQRLLTVLPSLLDKKKSVVSSPRPPECSASAPVAAAVPTRESIKGSLSVLLDDLQDLSEAISKEEAVCQGDNLDRCSSSNPQMSS
# B6: Nucleus accumbens-associated protein 1 (protein, UniProt Q96RE7 1-527)
# chain: MAQTLQMEIPNFGNSILECLNEQRLQGLYCDVSVVVKGHAFKAHRAVLAASSSYFRDLFNNSRSAVVELPAAVQPQSFQQILSFCYTGRLSMNVGDQFLLMYTAGFLQIQEIMEKGTEFFLKVSSPSCDSQGLHAEEAPSSEPQSPVAQTSGWPACSTPLPLVSRVKTEQQESDSVQCMPVAKRLWDSGQKEAGGGGNGSRKMAKFSTPDLAANRPHQPPPPQQAPVVAAAQPAVAAGAGQPAGGVAAAGGVVSGPSTSERTSPGTSSAYTSDSPGSYHNEEDEEEDGGEEGMDEQYRQICNMYTMYSMMNVGQTAEKVEALPEQVAPESRNRIRVRQDLASLPAELINQIGNRCHPKLYDEGDPSEKLELVTGTNVYITRAQLMNCHVSAGTRHKVLLRRLLASFFDRNTLANSCGTGIRSSTNDPRRKPLDSRVLHAVKYYCQNFAPNFKESEMNAIAADMCTNARRVVRKSWMPKVKVLKAEDDAYTTFISETGKIEPDMMGVEHGFETASHEGEAGPSAEALQ
# B7: Protein salvador homolog 1 (protein, UniProt Q9H4B6 1-383)
# chain: MLSRKKTKNEVSKPAEVQGKYVKKETSPLLRNLMPSFIRHGPTIPRRTDICLPDSSPNAFSTSGDVVSRNQSFLRTPIQRTPHEIMRRESNRLSAPSYLARSLADVPREYGSSQSFVTEVSFAVENGDSGSRYYYSDNFFDGQRKRPLGDRAHEDYRYYEYNHDLFQRMPQNQGRHASGIGRVAATSLGNLTNHGSEDLPLPPGWSVDWTMRGRKYYIDHNTNTTHWSHPLEREGLPPGWERVESSEFGTYYVDHTNKKAQYRHPCAPSVPRYDQPPPVTYQPQQTERNQSLLVPANPYHTAEIPDWLQVYARAPVKYDHILKWELFQLADLDTYQGMLKLLFMKELEQIVKMYEAYRQALLTELENRKQRQQWYAQQHGKNF
# B8: Small proline-rich protein 3 (protein, UniProt Q9UBC9 1-169)
# chain: MSSYQQKQTFTPPPQLQQQQVKQPSQPPPQEIFVPTTKEPCHSKVPQPGNTKIPEPGCTKVPEPGCTKVPEPGCTKVPEPGCTKVPEPGCTKVPEPGCTKVPEPGYTKVPEPGSIKVPDQGFIKFPEPGAIKVPEQGYTKVPVPGYTKLPEPCPSTVTPGPAQQKTKQK
# B9: Lysozyme C (protein, UniProt P61626 19-148)
# chain: KVFERCELARTLKRLGMDGYRGISLANWMCLAKWESGYNTRATNYNAGDRSTDYGIFQINSRYWCNDGKTPGAVNACHLSCSALLQDNIADAVACAKRVVRDPQGIRAWVAWRNRCQNRDVRQYVQGCGV
# Target: T1, hCLE-TAP tagged protein, purified as hCLE-CBD (human) (UniProt Q9Y224)
# T1 sequence: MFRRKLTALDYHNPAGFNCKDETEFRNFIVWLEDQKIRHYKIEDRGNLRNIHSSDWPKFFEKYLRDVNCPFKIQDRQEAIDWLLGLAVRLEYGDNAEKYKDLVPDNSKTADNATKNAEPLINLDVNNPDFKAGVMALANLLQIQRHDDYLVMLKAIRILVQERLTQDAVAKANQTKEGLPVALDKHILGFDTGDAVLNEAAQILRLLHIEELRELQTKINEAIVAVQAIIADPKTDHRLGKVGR
# Assay: affinity purification with mass spectrometry; TAP purification of hCLE-TAP from nuclear extracts of transfected HEK293T cells (150 mM NaCl, 10 mM Tris-HCl pH 8.0, 0.1% NP-40); LC-MS/MS; TAP alone as control
row,Binder,binding
1,B1,binds
2,B2,binds
3,B3,binds
4,B4,binds
5,B5,binds
6,B6,binds
7,B7,binds
8,B8,binds
9,B9,binds

# No constants are given. Whether binding was seen depends on the method and setting. In cells and extracts the contact can be indirect. These calls come from enrichment with a bait or labelling near it, and not all partners need be listed. Tags and fused reporters may be left off the sequences shown.
